# Values joined by “and” are separate entries in the source; they are usually repeats but may differ in a detail not shown here. Identical values can stand only once. This list was built around the results that the source calls inconclusive (neither active nor inactive); the mix of calls is not that of the screen. For some of these results: Potencies of inconclusive entries are doubtful fits and often do not repeat. Active and inactive are the calls of the source. Unless noted, the call rests on the fitted dose curve.
# The chains behind the UniProt entries cited, without tags or fusion partners. Where a name states a change or a piece, a line headed by the entry shows the natural chain unless it says otherwise.
# UniProt P28223, whole entry, looked up: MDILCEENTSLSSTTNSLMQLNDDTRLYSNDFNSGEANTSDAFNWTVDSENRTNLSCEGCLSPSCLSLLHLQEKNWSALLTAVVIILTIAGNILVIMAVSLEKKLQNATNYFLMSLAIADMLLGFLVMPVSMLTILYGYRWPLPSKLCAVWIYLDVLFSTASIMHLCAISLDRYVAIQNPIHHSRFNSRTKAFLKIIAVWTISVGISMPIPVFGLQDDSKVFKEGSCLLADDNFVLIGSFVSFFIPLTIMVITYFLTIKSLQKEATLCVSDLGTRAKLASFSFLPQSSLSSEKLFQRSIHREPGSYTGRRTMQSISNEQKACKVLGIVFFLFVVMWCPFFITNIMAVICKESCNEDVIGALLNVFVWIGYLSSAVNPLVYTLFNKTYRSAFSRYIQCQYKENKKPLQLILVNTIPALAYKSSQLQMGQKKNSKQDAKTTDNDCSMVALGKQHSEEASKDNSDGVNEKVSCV
# UniProt P14416, whole entry, looked up: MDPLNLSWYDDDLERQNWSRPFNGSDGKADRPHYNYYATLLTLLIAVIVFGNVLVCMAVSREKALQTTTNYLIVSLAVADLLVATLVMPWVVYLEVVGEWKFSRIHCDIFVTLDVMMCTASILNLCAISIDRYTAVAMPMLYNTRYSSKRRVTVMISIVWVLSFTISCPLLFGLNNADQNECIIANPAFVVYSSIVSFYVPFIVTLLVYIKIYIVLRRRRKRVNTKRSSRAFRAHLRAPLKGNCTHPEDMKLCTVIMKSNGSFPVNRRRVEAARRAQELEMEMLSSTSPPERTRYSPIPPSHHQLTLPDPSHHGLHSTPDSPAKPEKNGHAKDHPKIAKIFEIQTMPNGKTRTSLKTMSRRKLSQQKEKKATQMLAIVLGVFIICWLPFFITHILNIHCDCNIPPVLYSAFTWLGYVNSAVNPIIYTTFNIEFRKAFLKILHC
# UniProt P11229: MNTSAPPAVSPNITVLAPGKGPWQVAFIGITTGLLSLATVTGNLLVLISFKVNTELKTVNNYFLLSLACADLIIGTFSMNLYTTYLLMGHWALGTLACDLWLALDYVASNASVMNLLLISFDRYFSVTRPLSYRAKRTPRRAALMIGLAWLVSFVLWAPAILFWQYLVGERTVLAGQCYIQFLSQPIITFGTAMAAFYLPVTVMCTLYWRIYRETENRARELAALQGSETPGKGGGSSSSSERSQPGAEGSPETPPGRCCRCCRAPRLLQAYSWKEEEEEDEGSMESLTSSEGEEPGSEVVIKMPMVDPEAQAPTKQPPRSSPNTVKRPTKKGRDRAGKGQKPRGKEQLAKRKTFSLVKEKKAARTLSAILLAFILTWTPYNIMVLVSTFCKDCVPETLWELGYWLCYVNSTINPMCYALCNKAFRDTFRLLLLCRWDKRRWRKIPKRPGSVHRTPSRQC
# Tests used:
# [1] = p53 small molecule agonists, cell-based qHTS assay with human liver microsomes (AID 1963577); details: HCT-116 p53RE-bla with human liver microsomes, ratio, 16 h; activation: at 66 µM (top of the series) unless noted; further: potency means the concentration at half of the fitted maximal effect;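 on activation: p53 response element beta-lactamase reporter cells with liver microsomes plus NADPH; on the % scale 0 is the no-effect control and ±100 the full control effect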
# In short: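 p53RE-bla cells; 5 h settle, 37 C/5% CO2; cpd + HLM 0.5 mg/mL + NADPH 0.5 mg/mL (final); 16 h 37 C; LiveBLAzer 2 h RT dark; fluorescence readout.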
# [2] = p53 small molecule agonists, cell-based qHTS assay with rat liver microsomes: qHTS cell viability counter screen (AID 1963580); further: nearly all actives have a fitted effect of over 45% in size; further: potency means the concentration at half of the fitted maximal effect
# In short: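 p53RE-bla HCT-116 cells were exposed 16 h at 37 C to compounds with rat liver microsomes (0.5 mg/mL) and NADPH (0.5 mg/mL). Viability was measured in the same wells as ATP content by CellTiter-Glo luminescence.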
# [3] = cAMP Responsive Elements (CRE) small molecule antagonists, cell-based qHTS assay (AID 1963591; active means well fitted inhibition curve with a large enough effect in the signal ratio in the repeat runs, not every such curve was filed as active; inconclusive means weak or mixed curves, or effect the other way; the % refers to the signal ratio; further: potency means the concentration at half of the fitted maximal effect; on activity change, negative = inhibition: on the % scale 0 is the no-effect control and ±100 the full control effect); details: CRE-bla HEK293T, beta-lactamase FRET ratio; activity change, negative = inhibition: at 92.4 µM (top of the series) unless noted
# In short: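 Antagonist mode: test compounds are co-incubated with the adenylyl cyclase activator NKH477 (0.25 uM final) on CRE-bla HEK293T cells for 3 h at 37 °C, followed by LiveBLAzer substrate loading.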
# [4] = biological target: Beta-2 adrenergic receptor (Homo sapiens) (UniProt P07550); experiment: Adrenergic beta2 receptor (ADRB2) small molecule agonists, cell-based qHTS assay (AID 1963593); details: CHO-ADRB2 cells, cAMP HTRF, 30 min; further: potency means the concentration at half of the fitted maximal effect;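 on activation: CHO cells stably overexpressing human ADRB2; on the % scale 0 is the no-effect control and ±100 the full control effect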
# In short: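 CHO cells stably over-expressing ADRB2 were plated overnight at 37C, then dosed with compounds plus a stimulation mix containing 100uM IBMX and 25uM Ro-20-1724 for 0.5hr at room temperature. cAMP was measured by HTRF competition, 1hr.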
# [5] = p53 small molecule agonists, cell-based qHTS assay with human liver microsomes: qHTS cell viability counter screen (AID 1963579); further: nearly all actives have a fitted effect of over 45% in size; further: potency means the concentration at half of the fitted maximal effect
# In short: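 Luminescent CellTiter-Glo read-out, 30 min at room temperature, gauged cytotoxicity in p53RE-bla cells exposed 16 h at 37 C to DMSO-dissolved compounds with metabolic activation by human liver microsomes and NADPH, each 0.5 mg/mL final.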
# [6] = biological target: 5-hydroxytryptamine receptor 2A (Homo sapiens) (UniProt P28223); experiment: 5-hydroxytryptamine receptor 2A (HTR2A) small molecule antagonists, cell-based qHTS assay (AID 1963586); further: potency means the concentration at half of the fitted maximal effect; nearly all actives have a fitted effect of over 45% in size
# In short: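 Antagonist-mode intracellular calcium assay: DOI (4 nM) added after 5 min compound pre-incubation at room temperature to dye-loaded HTR2A-CHO cells. Fluorescence followed for 3 min, sampled every second.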
# [7] = biological target: D(2) dopamine receptor (Homo sapiens) (UniProt P14416); experiment: Dopamine D2 receptor (DRD2) small molecule agonists, cell-based qHTS assay (AID 1963594); details: HEK293-DRD2 cAMP HTRF, agonist mode, 30 min; activation: at 92.4 µM (top of the series) unless noted; further: on the % scale 0 is the no-effect control and ±100 the full control effect; nearly all actives have a fitted effect of over 35% in size
# In short: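 HEK293 cells stably expressing human DRD2, pre-treated with PDE inhibitor Ro20-1724 (0.1 mM final) and compound 10 min at room temperature, then stimulated with NKH477 (200nM […]) for 30 min. cAMP read by HTRF (665/620 nm).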
# [8] = biological target: D(2) dopamine receptor (Homo sapiens) (UniProt P14416); experiment: Dopamine D2 receptor (DRD2) small molecule antagonists, cell-based qHTS assay (AID 1963595; active means well fitted inhibition curve with a large enough effect in the signal ratio in the repeat runs, with a control signal flat; inconclusive means weak or mixed curves, or effect the other way; the % refers to the signal ratio; further: potency means the concentration at half of the fitted maximal effect); details: HEK293-DRD2 cAMP HTRF antagonist mode; activity change, negative = inhibition: at 92.4 µM (top of the series) unless noted
# In short: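 Human DRD2 antagonist qHTS measuring cAMP by HTRF. The cells are exposed to compound for 10 min, then to NKH477 (200 nM) and quinpirole (12 nM) for 30 min at RT, with Ro20-1724 (0.1 mM) present throughout.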
# [9] = cAMP Responsive Elements (CRE) small molecule agonists, cell-based qHTS assay (AID 1963590); details: CRE-bla HEK293T, beta-lactamase FRET ratio, 3 h; activation: at 92.4 µM (top of the series) unless noted; further: potency means the concentration at half of the fitted maximal effect; on activation: on the % scale 0 is the no-effect control and ±100 the full control effect
# In short: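 Agonist mode qHTS in CRE-bla HEK 293T cells: compounds dosed from DMSO for 3 h at 37 C/5% CO2, followed by LiveBLAzer B/G FRET substrate for 2 h at room temperature.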
# [10] = biological target: Beta-2 adrenergic receptor (Homo sapiens) (UniProt P07550); experiment: Adrenergic beta2 receptor (ADRB2) small molecule antagonists, cell-based qHTS assay (AID 1963592); details: CHO-ADRB2 cells, isoproterenol-stimulated cAMP HTRF ratio, 0.5 h; activity change, negative = inhibition: at 92.4 µM (top of the series) unless noted; further: on the % scale 0 is the no-effect control and ±100 the full control effect; nearly all actives have a fitted effect of over 50% in size
# In short: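 Cells (CHO, stable ADRB2 overexpression) incubated 18-20hr at 37C; compounds added from DMSO; agonist mix (1nM isoproterenol, 100uM IBMX, 25uM Ro-20-1724) added; 0.5hr RT; d2-cAMP and anti-cAMP-cryptate added; 1hr RT; 665/615 nm read.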
# [11] = biological target: Muscarinic acetylcholine receptor M1 (Homo sapiens) (UniProt P11229); experiment: Cholinergic receptor muscarinic 1 (CHRM1) small molecule antagonists, cell-based qHTS assay (AID 1963588); further: on the % scale 0 is the no-effect control and ±100 the full control effect; nearly all actives have a fitted effect of over 40% in size
# In short: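 CHRM1-CHO calcium-flux assay, antagonist mode. Cells were seeded 18 h, dye-loaded 1 h at 37 C and given compound for 5 min at RT, then acetylcholine was added at 50nM. FDSS fluorescence was read 3 min; 15 concentrations, three runs.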
# [12] = p53 small molecule agonists, cell-based qHTS assay (AID 1963582; active means well fitted activation curve with a large enough effect in the signal ratio in the repeat runs, not every such curve was filed as active; inconclusive means weak or mixed curves; the % refers to the signal ratio; further: potency means the concentration at half of the fitted maximal effect); details: HCT-116 p53RE-bla reporter, beta-lactamase FRET ratio, 16 h; activation: at 66 µM (top of the series) unless noted
# In short: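 Quantitative HTS in p53RE-bla cells: after a 5 h settling period, compounds delivered in DMSO were left on cells for 16 h at 37 C, and reporter induction was measured as fluorescence following 2 h substrate loading.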
# [13] = activation: at 92.4 µM (top of the series) unless noted
smiles,measurement,setting,value
CCCCCCCCCCCCS(=O)(=O)Cl,activation,[1],inactive: 0.955% [at 13.5 µM]
same,Potency,[2],"inconclusive: 0.547 µM [cytotoxic, single point]"
same,"activity change, negative = inhibition",[3],inactive: -6.5% [at 18.9 µM]
N#Cc1ccccc1,Potency,[1],inconclusive: 45.1 µM [fluorescent] and inconclusive: 45.8 µM [fluorescent]
same,Potency,[2],inactive
same,activation,[4]; [13],inconclusive: 21.1% and inconclusive: 5.3%
COc1ccccc1N1CCN(CC(O)COc2cccc3ccccc23)CC1 (centres undefined),activation,[1],inconclusive: 1.33% [at 30.3 µM]
same,Potency,[5],"inconclusive: 17.8 µM [cytotoxic, partial curve, poor fit]"
same,Potency,[6],active: 5.79 µM
same,"activity change, negative = inhibition",[3],inconclusive: -20.2% [at 42.4 µM]
same,Potency,[4]; [13],"inconclusive: 2.11 µM [inhibitor, full curve]"
same,activation,[7],inconclusive: 19.4% [at 42.5 µM]
same,Potency,[8],active: 33.5 µM
CC(=O)CC/C=C(\C)CCC=C(C)C,Potency,[1],inactive
same,Potency,[2],"inconclusive: 18.2 µM [rising, single point]"
same,Potency,[3],inactive
same,activation,[4]; [13],inconclusive: -1.4%
CCn1c(=O)c2c(nc(/C=C/c3ccc(OC)c(OC)c3)n2C)n(CC)c1=O,Potency,[1],"inconclusive: 17.8 µM [rising, partial curve, poor fit]"
same,Potency,[5],inactive
same,Potency,[6],"inconclusive: 0.163 µM [inhibitor, full curve, poor fit]"
same,Potency,[9],"inconclusive: 21.1 µM [rising, partial curve]"
same,"activity change, negative = inhibition",[10],inconclusive: -42.6% [at 42.5 µM]
same,Potency,[4]; [13],inconclusive: 18.8 µM [inhibitor]
CCCCCCCCCCCC(=O)OC,activation,[1],inconclusive: 16.4%
same,Potency,[5],"inconclusive: 10.2 µM [cytotoxic, single point]"
same,Potency,[3],inactive
same,Potency,[4]; [13],"inconclusive: 1.37 µM [inhibitor, single point]"
same,activation,[7],inconclusive: 23.5%
CC(=O)OCC(=O)[C@@]1(O)CC[C@H]2[C@@H]3CCC4=CC(=O)C=C[C@]4(C)[C@@]3(F)[C@@H](O)C[C@@]21C,Potency,[1],inactive
same,Potency,[5],inactive
same,activation,[4]; [13],inconclusive: -23.6% [at 42.5 µM]
CCn1ccc(NS(=O)(=O)c2ccc(N)cc2)nc1=O,Potency,[1],"inconclusive: 12.6 µM [rising, single point]"
same,Potency,[5],"inconclusive: 12.6 µM [cytotoxic, single point]"
same,Potency,[6],"inconclusive: 23.1 µM [inhibitor, single point]"
same,Potency,[11],inactive
same,Potency,[9],inactive
same,activation,[4]; [13],inconclusive: 16.3% [at 42.5 µM]
same,activation,[7],inconclusive: 36.2% [at 42.5 µM]
C/C=C/C(=O)C1=C(C)CCCC1(C)C,activation,[1],inconclusive: -21.8%
same,Potency,[5],inactive
same,Potency,[6],"inconclusive: 3.75 µM [inhibitor, single point]"
same,Potency,[9],inactive
same,activation,[4]; [13],inconclusive: -24.5%
CCCCCCCCCCCC[N+](C)(C)CCCCCCCCCCCC,Potency,[1],inactive
same,Potency,[2],active: 40.8 µM
same,Potency,[12],inconclusive: 51.3 µM [single point]
same,Potency,[9],"inconclusive: 77 µM [falling, single point]"
same,Potency,[3],"inconclusive: 50.8 µM [inhibitor, partial curve, poor fit]"
same,activation,[4]; [13],inconclusive: 1.46%
same,Potency,[8],active: 43.3 µM
CCN(CC)CC(=O)Nc1c(C)cccc1C(=O)OC,Potency,[1],inactive
same,Potency,[5],"inconclusive: 5.61 µM [cytotoxic, single point]"
same,Potency,[4]; [13],inactive
same,activation,[7],inconclusive: 2.59% [at 42.5 µM]
CC(C)(C)[C@@H](O)[C@@H](Cc1ccc(Cl)cc1)n1cncn1,Potency,[1],inactive
same,Potency,[2],"inconclusive: 0.0572 µM [cytotoxic, single point]"
same,Potency,[12],"inconclusive: 18.2 µM [rising, partial curve, poor fit]"
same,Potency,[9],"inconclusive: 19.2 µM [rising, partial curve, poor fit]"
same,Potency,[4]; [13],"inconclusive: 15.2 µM [inhibitor, partial curve, poor fit]"
CC1(C)NC(=O)NC1=O,activation,[1],inconclusive: 0.758%
same,Potency,[5],"inconclusive: 0.65 µM [rising, full curve, poor fit]"
same,Potency,[4]; [13],"inactive and inconclusive: 6.9 µM [inhibitor, single point]"
CCCCNC(N)=O,Potency,[1],"inconclusive: 50.7 µM [fluorescent, single point]"
same,Potency,[5],"inconclusive: 45.8 µM [cytotoxic, partial curve]"
same,"activity change, negative = inhibition",[3],inconclusive: 1.71%
same,activation,[4]; [13],inconclusive: 19.4%
same,activation,[4]; at 92.4 µM (top of the series),inactive: 6.1%
CC(C)OC(=O)CCC(=O)OC(C)C,Potency,[1],"inconclusive: 3.24 µM [falling, partial curve, poor fit]"
same,Potency,[5],"inconclusive: 51.3 µM [cytotoxic, single point]"
same,activation,[4]; [13],inconclusive: -27.4%
CC(=O)Oc1cccc(C)c1,Potency,[1],"inconclusive: 22.3 µM [fluorescent, single point]"
same,Potency,[5],"inconclusive: 22.3 µM [cytotoxic, single point]"
same,Potency,[3],inactive
same,Potency,[4]; [13],inactive
CC(C)=CCCC(C)CCO (centres undefined),Potency,[1],"inconclusive: 51.3 µM [fluorescent, partial curve, poor fit]"
same,Potency,[2],inactive
same,Potency,[9],inactive
same,Potency,[4]; [13],"inconclusive: 35.7 µM [inhibitor, partial curve, poor fit]"
same,activation,[4]; [13],inconclusive: 3.18%

# Source: PubChem BioAssay (Tox21)
